Data source: PubChem BioAssay AID743454 (Peter MacCallum Cancer Centre, 2014)
Shown is a random part of about 18,000 reagents tested. 450 of all reagents (2.5%) count as active. 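Single biological run; no consistent viability z cut-off exists, so the class columns, not z-scores, define the calls.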

- Screen: 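Search for knock-downs that restore vorinostat killing in resistant colon cancer cells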 (primary screen)
- Cells: human HCT116-VR colon cancer cells, selected for vorinostat resistance
- Reagent: siRNA pool against human genes, 40 nM siRNA pool
- Timing: vorinostat for 24 h, read-out about 72 h after transfection
- Conditions: vorinostat at 2.5 µM final
- Measurement: 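Cell viability by CellTiter-Fluor and caspase 3/7 activity by luminescence, each scaled to mock wells per plate, duplicates averaged, then robust z-scored over all plates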
- Reading the numbers: viability robust z-score: higher = more viable cells than screen typical; caspase robust z-score: higher = more caspase 3/7 activity than screen typical
- Call rule: 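Hits are knock-downs in viability class RV1/RV2 or caspase class CA1/CA2, excluding ones that killed cells in the no-drug cell-count arm; hits then retested with single siRNAs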

| Gene | viability hit class | caspase hit class | viability robust z-score | caspase robust z-score | call |
| --- | --- | --- | --- | --- | --- |
| PPA2 | no change | no change | -1.02 | 0.84 | inactive |
| ADGRA1 | no change | no change | -0.28 | 0.04 | inactive |
| PTPRD | no change | no change | 0.11 | 0.24 | inactive |
| AGBL4 | no change | no change | 0.86 | -0.38 | inactive |
| UNC13B | no change | no change | -0.8 | 1.21 | inactive |
| MACC1 | no change | no change | 0.04 | 0.44 | inactive |
| VSTM4 | no change | no change | 0.57 | 1.7 | inactive |
| ZNF701 | no change | no change | -0.66 | 4.09 | inactive |
| PPM1J | no change | no change | -0.9 | 0.14 | inactive |
| DPYSL5 | no change | no change | 0.93 | -0.41 | inactive |
| CCDC141 | no change | no change | 1.98 | -0.51 | inactive |
| SPTAN1 | no change | no change | 1.18 | -0.44 | inactive |
| DGKB | no change | no change | -0.96 | -1.19 | inactive |
| CCL27 | no change | no change | 0.45 | 0.92 | inactive |
| CBLN3 | no change | no change | 0.24 | -0.22 | inactive |
| TMEM95 | no change | no change | -0.01 | 0.66 | inactive |
| ZDHHC1 | no change | no change | 0.76 | 0.61 | inactive |
| ZCCHC12 | no change | no change | 0.4 | -0.26 | inactive |
| SENP1 | no change | no change | 0.25 | -0.29 | inactive |
| CAMK1G | no change | no change | 0.38 | 0.48 | inactive |
| GSTA4 | no change | no change | -0.86 | 0.28 | inactive |
| CELF1 | no change | no change | -1.09 | -1.1 | inactive |
| RGS2 | no change | no change | -0.58 | 2.47 | inactive |
| SNRNP48 | no change | no change | 0.28 | -0.14 | inactive |
| GALC | no change | no change | 0.75 | -0.53 | inactive |
| DOK4 | no change | no change | 0.3 | -0.24 | inactive |
| MAGEA2 | no change | no change | -2.63 | 0.34 | inactive |
| ASCC2 | no change | no change | 0.2 | 0.04 | inactive |
| PCDHB5 | no change | no change | -0.64 | -0.38 | inactive |
| FOXO4 | no change | no change | -1.32 | 4.27 | inactive |
| COL4A4 | no change | no change | 2.26 | 0.12 | inactive |

An excerpt of the results above, for reference:
| Gene | viability hit class | caspase hit class | viability robust z-score | caspase robust z-score | call |
| --- | --- | --- | --- | --- | --- |
| PPM1J | no change | no change | -0.9 | 0.14 | inactive |
| DPYSL5 | no change | no change | 0.93 | -0.41 | inactive |
| CCDC141 | no change | no change | 1.98 | -0.51 | inactive |

Additional records follow:
| Gene | viability hit class | caspase hit class | viability robust z-score | caspase robust z-score | call |
| --- | --- | --- | --- | --- | --- |
| SRY | no change | no change | 0.24 | -0.04 | inactive |
| IL3 | no change | no change | -0.36 | -0.15 | inactive |
| GPR132 | no change | no change | -4.37 | 1.62 | inactive |
| CFC1B | no change | no change | 0.48 | -0.68 | inactive |
| SC5D | no change | CA1 (caspase activation) | -0.82 | 6.61 | active |
| ANGEL2 | no change | no change | 0.29 | 0.73 | inactive |
| MST1R | no change | no change | -1.92 | -0.75 | inactive |
| CD164L2 | no change | no change | 0.68 | -0.98 | inactive |
| EIF4EBP1 | no change | no change | 1.15 | 2.11 | inactive |
| PLP2 | no change | no change | 0.4 | -1.08 | inactive |
| H3C12 | no change | no change | -1.74 | -0.3 | inactive |
| STPG1 | no change | no change | -0.53 | 1.94 | inactive |
| INTS13 | no change | no change | 0.5 | 2 | inactive |
| TNPO3 | no change | no change | -0.8 | -0.02 | inactive |
| KGD4 | no change | no change | -0.5 | -0.5 | inactive |
| NUSAP1 | no change | no change | 0 | -0.65 | inactive |
| BMP1 | no change | no change | 0.06 | -0.11 | inactive |
| ZNF461 | no change | no change | -1.05 | -0.93 | inactive |
| CCNQ | no change | no change | 0.48 | -0.2 | inactive |
| APH1A | no change | no change | -1.4 | -0.4 | inactive |
| KATNA1 | no change | no change | -0.94 | -1.23 | inactive |
| RECK | no change | CA1 (caspase activation) | -0.08 | 7.44 | active |
| RPS15 | no change | no change | -3.34 | -1.19 | inactive |
| RFC1 | no change | no change | 0.62 | -0.44 | inactive |
| OR7A5 | no change | no change | -0.04 | -1.07 | inactive |
| ATOSB | no change | no change | -1.16 | 0.22 | inactive |
